PubChem BioAssay AID743454 – Peter MacCallum Cancer Centre – 2014
Test: 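Genes whose loss kills vorinostat-resistant colon cancer cells under vorinostat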 (primary screen). System: human HCT116-VR colon cancer cells, selected for vorinostat resistance. Knock-down reagent: siRNA pool against human genes, 40 nM siRNA pool. Duration: vorinostat for 24 h, read-out about 72 h after transfection. Conditions: vorinostat at 2.5 µM final. Measured: 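Cell viability by CellTiter-Fluor and caspase 3/7 activity by luminescence, each scaled to mock wells per plate, duplicates averaged, then robust z-scored over all plates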. Reading the numbers: viability robust z-score: higher = more viable cells than screen typical; caspase robust z-score: higher = more caspase 3/7 activity than screen typical. Call rule: 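Hits are knock-downs in viability class RV1/RV2 or caspase class CA1/CA2, excluding ones that killed cells in the no-drug cell-count arm; hits then retested with single siRNAs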.
The deposit covers about 18,000 reagents; this is a random part of them. 450 of all reagents (2.5%) count as active. 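Single biological run; no consistent viability z cut-off exists, so the class columns, not z-scores, define the calls.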

gene knocked down | viability hit class | caspase hit class | viability robust z-score | caspase robust z-score | call
PRORSD1P | no change | no change | 1.09 | 1.66 | inactive
TMEM50B | no change | no change | -1.2 | 4.97 | inactive
SAMD9 | no change | no change | 0.18 | 0.7 | inactive
CMTM5 | no change | no change | -0.36 | 3.15 | inactive
STAM2 | no change | no change | 0.34 | -1.04 | inactive
BCAP29 | no change | no change | -1.48 | 0.1 | inactive
AHI1 | no change | no change | 0.4 | 1.15 | inactive
TMEM35A | no change | no change | 0.43 | 0.37 | inactive
NHLH2 | no change | no change | -0.7 | -0.99 | inactive
KCTD10 | no change | no change | 1.02 | 0.08 | inactive
B3GALNT2 | no change | no change | -0.1 | 3.22 | inactive
CNTRL | no change | no change | 0.5 | -0.79 | inactive
RRP1 | no change | no change | -1.21 | 0.24 | inactive
RBPJ | no change | no change | 0.12 | 0.48 | inactive
FLG2 | no change | no change | -1.6 | -0.18 | inactive
LRGUK | no change | no change | 1.31 | -1.1 | inactive
CNGA3 | no change | no change | -0.57 | 1.52 | inactive
MATCAP1 | no change | no change | 0.74 | -0.38 | inactive
SLC12A1 | no change | no change | 1.17 | 0.56 | inactive
MED18 | no change | no change | 0.08 | 0 | inactive
PRKCA | no change | no change | 0.5 | 2.66 | inactive
GPANK1 | no change | no change | 0.51 | 0.11 | inactive
CHRM3 | no change | no change | -1.61 | 2.45 | inactive
PHKA1 | no change | no change | 0.66 | -0.29 | inactive
TMEM184C | no change | no change | 0.92 | -0.68 | inactive
PLEKHA8 | no change | no change | -0.97 | -0.9 | inactive
CST1 | no change | no change | -1.23 | 3.13 | inactive
ADAM32 | no change | no change | -1.31 | -1.01 | inactive
BLVRA | no change | no change | -0.52 | 1.52 | inactive
IBTK | no change | no change | -0.53 | -0.94 | inactive
DUS4L | no change | no change | 1.38 | -1.02 | inactive
UGDH | no change | no change | -1.45 | 0.08 | inactive
MUC20 | no change | no change | 0.54 | 1.44 | inactive
INTS12 | no change | no change | -1.99 | 3.62 | inactive
HCST | no change | no change | 0.11 | -0.34 | inactive
ZC3HAV1 | no change | no change | 0.48 | -0.42 | inactive
VPS33B | no change | no change | -0.79 | -0.02 | inactive
HVCN1 | no change | no change | -2.45 | 1.41 | inactive
CNOT6 | no change | no change | -1.6 | 1.06 | inactive
